Measurements from article PMC6480920.
The exact form of at least one protein or probe is not confirmed. For part of these data: Weaker means in comparison with the reference protein, sequence or condition of that experiment. At least one verdict was read from the data and is not stated in words by the source.

Sequences of proteins named here, by UniProt entry; tags and fusion partners are left off. Residues count along the entry.
UniProt Q15366, whole entry: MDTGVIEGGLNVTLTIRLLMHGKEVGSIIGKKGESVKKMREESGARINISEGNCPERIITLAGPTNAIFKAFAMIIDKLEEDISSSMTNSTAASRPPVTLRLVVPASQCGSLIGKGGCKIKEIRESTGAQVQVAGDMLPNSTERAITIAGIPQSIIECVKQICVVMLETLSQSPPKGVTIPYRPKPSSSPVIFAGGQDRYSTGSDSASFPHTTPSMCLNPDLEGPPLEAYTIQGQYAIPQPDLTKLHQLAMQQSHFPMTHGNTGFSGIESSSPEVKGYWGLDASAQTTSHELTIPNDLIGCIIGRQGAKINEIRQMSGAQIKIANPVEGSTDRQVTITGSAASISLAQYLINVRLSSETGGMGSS
UniProt P02769, 25-607: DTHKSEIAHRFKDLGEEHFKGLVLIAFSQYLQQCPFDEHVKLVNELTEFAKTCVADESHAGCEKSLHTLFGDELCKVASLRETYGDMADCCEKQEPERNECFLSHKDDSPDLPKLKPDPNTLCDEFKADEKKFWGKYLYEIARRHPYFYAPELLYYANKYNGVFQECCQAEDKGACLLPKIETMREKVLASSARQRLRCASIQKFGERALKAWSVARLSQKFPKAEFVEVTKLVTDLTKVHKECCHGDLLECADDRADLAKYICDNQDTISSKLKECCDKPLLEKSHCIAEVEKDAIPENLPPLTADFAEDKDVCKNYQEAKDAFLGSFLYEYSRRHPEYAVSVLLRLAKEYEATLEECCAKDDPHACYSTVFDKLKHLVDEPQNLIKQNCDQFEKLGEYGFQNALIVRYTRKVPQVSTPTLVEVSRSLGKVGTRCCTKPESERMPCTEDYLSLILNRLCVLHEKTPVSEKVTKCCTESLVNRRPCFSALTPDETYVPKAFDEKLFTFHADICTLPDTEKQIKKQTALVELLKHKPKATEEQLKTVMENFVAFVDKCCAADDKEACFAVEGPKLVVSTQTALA

The sequences below were run against PCBP-2 (poly(C)-binding protein 2) (UniProt Q15366) (assay: colorimetric ELONA). Conditions: Kd in range 9.9-109.5 nM, value in figure, similar to qPCR read-out; recombinant protein; protein details: N-terminal 6xHis; label: 3' digoxigenin; single-stranded DNA.
“GCGGATCCAGACTGGTGTACTGGGCTAGTTGCCTCTGCAGATTAGATGATGACAGTGGCCCTAAAGACAAGCTTC [05DS10-02-DIG]”: binds.

Same assay, conditions: Kd in range 9.9-109.5 nM, value in figure; recombinant protein; protein details: N-terminal 6xHis; label: 3' digoxigenin; single-stranded DNA
“GCGGATCCAGACTGGTGTACCTGTTAGCAAGAGTTTATTATGTAAAGATATCCGTTGGGCCCTAAAGACAAGCTTC [05DS10-05-DIG]”: binds. “GCGGATCCAGACTGGTGTCAATGGTACTCTTCATTGTAGTCGCTTTGTTTATTAGCCGGCCCTAAAGACAAGCTTC [05DS10-22-DIG]”: binds. “GCGGATCCAGACTGGTGTCCTATCTATAATTTTGCAGTCCACGTTTCTCTTGTGTGTGCCCTAAAGACAAGCTTC [05DS10-18-DIG]”: binds. “GCGGATCCAGACTGGTGTGCACAGCACATGCATTACTGCGGTAATCCGTGTCCTTTGTGCCCTAAAGACAAGCTTC [05DS10-01-DIG]”: binds. “GCGGATCCAGACTGGTGTGCAGGTATGCCGGATCATGTCGTGAAAGTATCCATTTCTCGCCCTAAAGACAAGCTTC [05DS10-12-DIG]”: binds. “GCGGATCCAGACTGGTGTGGAGGTTAGCCGAAACACGTATACGCGTATTTATCCTCGGGCCCTAAAGACAAGCTTC [05DS10-21-DIG]”: binds. “GCGGATCCAGACTGGTGTGGGAATGTTGTTTATGTATTTGTTCTGAGCTCTACCTTTGCCCTAAAGACAAGCTTC [05DS10-26-DIG]”: binds.

These sequences were tested against BSA (UniProt P02769) (assay: ELONA-RTqPCR). Conditions: high specificity for PCBP-2 over BSA, 100 nM RNA; commercial protein.
“GGGGCGGAUCCAGACUGGUGUACACGGUGUUUAGUAGUUUAAUGAAUCUUUUAGUUCUUGGGCCCUAAAGACAAGCUUC [05RS10-09]”: binds more weakly.
